# Primary screen of a compound library

Each number is a percent effect as filed. The record does not define 0% and 100%; most values in the screen are far below 50% and negative numbers occur (in some assays of this library far below -100). This is an unselected part of the compounds tested.

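Whole-parasite assay of Trypanosoma brucei over 72 hours; the read-out is not stated. Tested at 30 µM. Higher reads as stronger inhibition (inferred: compounds with an IC50 in retests scored well above the rest). Values scatter widely below zero; nearly all retest evidence comes from the higher of the two concentrations used. Of about 64,000 compounds tested this way, about 940 (1.5%) reached 50% or more in at least one test.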

For CC(C)NC(=O)N[C@H]1C[C@@H](Cc2cc(CN3CCOCC3)on2)C1(C)C the result was -1.578%. O=C(NCc1ccc2nonc2c1)C1CCN(C(=O)C2CCC2)CC1 read -14.54%. COc1ccc(CN2CCC3(CC2)CN(c2ccccn2)CCO3)cc1.O=C(O)C(F)(F)F.O=C(O)C(F)(F)F read -16.27%. For Cc1sc2ncnc(N3CCCC3Cn3cccn3)c2c1C (centres undefined) the result was 7.606%. With COC(=O)[C@@H]1Cc2ncn(C(C)C)c2CN1S(=O)(=O)Cc1ccccc1 the screen gave 3.024%. O=C(O)C(F)(F)F.[H][C@@]12COC[C@@H](C(=O)N3CCCO3)[C@]1([H])CN(C1CCOCC1)C2 read -16.21%.

For O=C(O)C(F)(F)F.c1c2c(nn1CC1CC1)C(CNC1CCOCC1)OCC2 (centres undefined) the result was -27.94%. CC(C)CC(NCc1ccsc1)c1ccccn1 (centres undefined) gave -57.09%. With CC(C)N(Cc1ccc(Cl)c(Cl)c1)C(=O)Cn1cncn1 the screen gave 1.705%. Result for CCC(NC(=O)c1ccco1)c1nc(C(F)(F)F)cs1 (centres undefined) was -41.2%. Result for O=C1NC2(CCN(CC(=O)N3CCOCC3)CC2)Nc2ccccc21 was 1.72%. Result for CN(Cc1cc(C2CC2)[nH]n1)C(=O)c1ccccc1C1CCNC1 (centres undefined) was -29.04%.

With Cc1ccc(CNS(=O)(=O)CC2=NC(=O)n3cccc3C2=O)cc1 the screen gave 16.24%. O=C(O)C(F)(F)F.[H][C@@]12CCN(C(=O)c3ccccc3)[C@@]1([H])CC(=O)N2CCN1CCOCC1 read -25.87%. With COc1ccc(N2Cc3n[nH]c(=O)n3C2=O)cc1 the screen gave -31.84%. CCc1csc(NC(=O)Nc2c(C)n[nH]c2C)n1 gave -16.67%. [H][C@@]12CS(=O)(=O)C[C@]1([H])N(C(=O)c1cnc(C)cn1)CCN2C(=O)CC(C)C read 17.94%. COc1ccc(-n2ccc(C(=O)N3CCC(C(N)=O)C3)n2)cc1 (centres undefined) read -44.9%.

For Cc1cc(-c2cnc(N3CCNC(=O)C3)nc2-c2sccc2C)on1 the result was 18.62%. [H][C@]12CC[C@]([H])(CN(c3nccc(C)n3)C1)N(CC1CCC1)C2=O read -45.45%. CCn1cc(CN2CCCC(CO)(CCc3ccccc3)C2)c(C)n1 (centres undefined) gave 4.831%. O=C(O)C(F)(F)F.O=C(c1cccnc1)N1CCOC2(COCCN(c3cncnc3)C2)C1 (centres undefined) read -11.51%. With O=C(c1cccs1)N1CCc2c(nc(N3CCCCC3)[nH]c2=O)C1 the screen gave -6.066%. Result for Cc1nc(CN(C)C2CCN(CCn3cc(C#N)cn3)C2)no1 (centres undefined) was -2.287%.

For CCC[C@@H]1CN(S(=O)(=O)c2ccc(C)c(F)c2)C[C@H]1N(C)C the result was 1.462%. For CC(C)(CNc1ccccc1S(=O)(=O)C(F)F)N1CCOCC1 the result was 31.1%. For COCc1c(C(=O)N2CCCC(C(=O)c3nccn3C)C2)noc1C (centres undefined) the result was -35.99%. Result for Cc1ccc(CNC(=O)Nc2nnc(C(C)C)s2)n1C was 4.7%. Result for Cc1c(NC(=O)c2cccc(Br)c2)c(C(=O)N(C)C)nn1C was -16.61%. Cn1c(CN2CC[C@](C)(O)C(C)(C)C2)cc2ccccc21 gave -44.9%.

With CN(C)Cc1nnc(C2CCN(c3nccc(N)n3)CC2)n1C1CC1 the screen gave 15.17%. COc1cc(CNCc2ccnc(N3CCCCC3)c2)cc(OC)c1 read 17.3%. Result for Cc1csc(C2(NC(=O)CCc3ccncc3)CCCC2)n1 was 3.962%. O=C(NCCc1ccsc1)Nc1cccnc1N1CCCC1 gave 10.35%. With COCC(=O)N1CCN(C(=O)c2scnc2C)CC1 the screen gave 23.64%. Result for [H][C@]12CN(c3cc(C#N)ccn3)CC[C@@]1(O)CCN(S(=O)(=O)N(C)C)C2 was -24.78%.

For CN(C)c1ccc(-c2cc(C(=O)O)cc(S(=O)(=O)NC3CC3)c2)cc1 the result was 102.4%. Result for CCOc1ccc(C(=O)N2CCCC2c2c(C)nn(C)c2Cl)cn1 (centres undefined) was 4.964%. Result for CC(=O)N1CCCC(Cc2cncc(Br)c2)C1 (centres undefined) was 3.596%. Result for CCN1CCC2(CN(C(=O)N(C)C)CC23CCNCC3)C1=O.O=C(O)C(F)(F)F (centres undefined) was -7.882%. For CN(C)C(=O)CCS(=O)(=O)Cc1cc(Cl)c2c(c1)OCCO2 the result was -20.4%. For CN(CCN1CCCCCC1)C(=O)c1cc(CN2CCCC(O)C2)on1 (centres undefined) the result was 1.534%.

For Cc1nc(N2CCCN(c3ncccn3)CC2)c2cnn(C)c2n1 the result was 49.58%. O=C(O)c1cc(S(=O)(=O)Nc2cc(F)ccc2F)cc2c1OCCO2 read -7.555%. With CN(C)CCN1CCOCC2(C1)CN(Cc1ccsc1)CCO2.O=C(O)C(F)(F)F.O=C(O)C(F)(F)F.O=C(O)C(F)(F)F (centres undefined) the screen gave 38.01%. Cc1noc(C)c1CN1CC2(CCCCN2C)CC1=O.O=C(O)C(F)(F)F (centres undefined) gave -59%. COCCN(c1ccncc1)S(=O)(=O)c1cc(C)cc(F)c1 read 4.022%. O=C(C1CCOC1)N1CCN(CC(F)(F)F)c2ccccc21 (centres undefined) gave -6.061%.

CCN1CCCC1CNC(=O)CCc1cccs1 (centres undefined) read -32.25%. With Cn1nc(C(=O)NCc2ccc(OC3CCCCC3)nc2)ccc1=O the screen gave -45.41%. With O=C1N(c2ccc(Br)cc2)Cc2n[nH]c(=O)n21 the screen gave -22.01%. For COCc1cn([C@@H]2c3ccccc3C3(CCNCC3)[C@H]2O)nn1 the result was -6.933%. CC(C)CNC(=O)c1c(-n2cnnn2)sc2c1CCCC2 read -6.521%. NC(=O)CC1CCN(C(=O)CCOc2ccc(Cl)cc2)CC1 gave -10.31%.

CCc1n[nH]c(C2CN(C(=O)Cn3ccccc3=O)CCO2)n1 (centres undefined) gave -2.998%. With O=C(C[S+]([O-])c1ccc(F)c(F)c1)NCc1cc(F)cc(F)c1 (centres undefined) the screen gave -63.43%. CCCc1nc(CN2CCN(CC(O)c3ccccc3)CC2)no1 (centres undefined) read 11.71%.

Repeated from the top, 3 entries:

{"smiles": "CC(C)NC(=O)N[C@H]1C[C@@H](Cc2cc(CN3CCOCC3)on2)C1(C)C", "effect": -1.578}
{"smiles": "O=C(NCc1ccc2nonc2c1)C1CCN(C(=O)C2CCC2)CC1", "effect": -14.54}
{"smiles": "COc1ccc(CN2CCC3(CC2)CN(c2ccccn2)CCO3)cc1.O=C(O)C(F)(F)F.O=C(O)C(F)(F)F", "effect": -16.27}

The values are deposited in ChEMBL (CHEMBL3988442, “University of Dundee, Small-Polar-MMV Screening Library” (2021)).